Reference: publication PMC3797037, “Structural and Mechanistic Insight into DNA Unwinding by Deinococcus radiodurans UvrD” (PLoS ONE, 2013)
Substitutions are numbered along the chain they refer to. A weaker result is weaker than the reference pair of the same experiment. For part of these data: Where a protein sequence is shown, tags need not be part of it. For part of these data: Construct, isoform or probe ends are uncertain for at least one entry.

How the values were obtained:
Assay in all cases: fluorescence anisotropy
Details in all cases: 1 mM AMPPNP, fluorescein-dT at position 12 of strand 1, 0.1 mg/mL BSA, 2.5 nM DNA, 0-8 µM protein, 80 µl, room temperature, recombinant protein, residues 1-745, protein details: N-terminal His-tag cleaved with TEV (pET151d), label: fluorescein (internal dT12)
[1] = target: T1, drUvrD G424T (Deinococcus radiodurans) (UniProt Q9RTI9)
T1 sequence (looked up): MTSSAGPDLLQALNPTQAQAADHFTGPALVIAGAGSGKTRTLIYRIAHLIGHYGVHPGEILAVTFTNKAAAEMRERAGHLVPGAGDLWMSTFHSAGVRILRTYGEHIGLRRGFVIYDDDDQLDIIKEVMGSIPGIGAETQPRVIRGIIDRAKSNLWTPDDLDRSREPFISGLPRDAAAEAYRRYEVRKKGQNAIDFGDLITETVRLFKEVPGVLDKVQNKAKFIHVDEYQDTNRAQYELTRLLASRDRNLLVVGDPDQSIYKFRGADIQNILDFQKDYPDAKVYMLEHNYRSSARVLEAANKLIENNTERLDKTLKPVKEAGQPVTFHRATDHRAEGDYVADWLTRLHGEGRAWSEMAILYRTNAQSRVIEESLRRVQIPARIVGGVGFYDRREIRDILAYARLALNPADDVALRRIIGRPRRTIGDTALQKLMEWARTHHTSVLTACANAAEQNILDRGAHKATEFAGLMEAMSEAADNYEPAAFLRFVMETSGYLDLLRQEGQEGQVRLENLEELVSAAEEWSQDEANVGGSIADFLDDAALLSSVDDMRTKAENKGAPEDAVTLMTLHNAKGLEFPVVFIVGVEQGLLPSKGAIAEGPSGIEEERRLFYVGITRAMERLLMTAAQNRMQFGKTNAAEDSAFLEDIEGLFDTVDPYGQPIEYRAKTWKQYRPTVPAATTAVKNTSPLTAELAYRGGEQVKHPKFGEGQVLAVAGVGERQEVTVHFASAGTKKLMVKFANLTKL

[2] = target: T2, drUvrD G424T/G426T (Deinococcus radiodurans) (UniProt Q9RTI9)
T2 sequence (looked up): T1 sequence (looked up) with G426T

[3] = target: drUvrD ΔHairpin (Deinococcus radiodurans) (UniProt Q9RTI9)

“TCGGTACGACCTGCGAGCACTGCTT / AAGCAGTGCTCGCAGGTCGTACCGATTTTTTTTTTTTTTT [3'-tailed dsDNA (H1T12/H3-15)]”: binds more weakly [1]; binds more weakly [2]; binds ([3]; binding unaffected vs WT).

“TCGGTACGACCTGCGAGCACTGCTT / TTTTTTTTTTTTTTTAAGCAGTGCTCGCAGGTCGTACCGA [5'-tailed dsDNA (H1T12/H5-15)]”: binds more weakly [1]; binds more weakly [2]; binds more weakly ([3]; slightly reduced affinity vs WT).
